PubChem BioAssay AID1159578, Peter MacCallum Cancer Centre – 2015
The whole screen tested about 18,000 reagents; shown is an unselected part. About 1,030 of them (5.7%) were called active. 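Inactive calls also include pools with fewer than 3300 nuclei, whose migration was not assessed.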 The raw values are shown without normalisation. Unmarked entries are inactive.

- Aim: 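Knock-downs that alter how fast lymphatic endothelial cells migrate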 (primary screen)
- System: human lymphatic endothelial cells
- Knock-down reagent: siRNA pool against human genes, 40 nM
- Duration: 48 h after transfection
- Measured: 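Cells stained with dye and imaged after a scratch; covered wound area and nuclei counted, duplicates averaged, migration set against mock wells and turned into a robust z-score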
- Reading the numbers: migration robust z-score: higher = faster migration into the scratch; migration relative to mock: higher = more scratch area covered than mock; nuclei per well: higher = more cells in the well
- Call rule: 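Migration changed when robust z exceeds 2 or falls below -2 and mean nuclei number is at least 3300; otherwise not called changed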
- Meaning of the calls: active = migration changed; inactive = no migration change, or too few cells

gene	migration robust z-score	migration class with cell-count check	migration relative to mock	nuclei per well, duplicate mean
GABPB1	-0.37	migration z between -2 and 2; enough cells	0.79	6848
CYP2B6	0.5	migration z between -2 and 2; enough cells	1.02	5980
QRICH1	0.88	migration z between -2 and 2; enough cells	1.12	4715
CA12	0.44	migration z between -2 and 2; enough cells	0.89	5381
CCNJ	0.78	migration z between -2 and 2; enough cells	1.09	5674
SHISA5	-0.72	migration z between -2 and 2; enough cells	0.7	5077
ZFYVE16	1.06	migration z between -2 and 2; enough cells	1.17	5274
SH3GL2	-0.1	migration z between -2 and 2; enough cells	0.78	6867
KLRF1	0.57	migration z between -2 and 2; enough cells	0.92	5804
LSR	-2.62 (active)	migration z below -2; enough cells	0.3	5516
SLCO6A1	0.13	migration z between -2 and 2; enough cells	0.83	6958
ZNF777	-1.55	migration z between -2 and 2; enough cells	0.48	5264
OR4N4	0.54	migration z between -2 and 2; enough cells	1.02	5750
OGFR	-1.46	migration z between -2 and 2; enough cells	0.52	3830
CNKSR3	-0.38	migration z between -2 and 2; enough cells	0.78	4920
HARBI1	-1.39	migration z between -2 and 2; enough cells	0.53	6307
ATP1B2	-1.6	migration z between -2 and 2; enough cells	0.5	4209
PCDHB4	-0.59	migration z between -2 and 2; enough cells	0.73	6550
ANKEF1	0.65	migration z between -2 and 2; enough cells	0.93	5648
CRIP1	-0.01	migration z between -2 and 2; enough cells	0.88	5205

As entered above.
Result for QRICH1 under “migration relative to mock”: 1.12
OGFR, nuclei per well, duplicate mean → 3830

The list goes on:
gene	migration robust z-score	migration class with cell-count check	migration relative to mock	nuclei per well, duplicate mean
AARD	0.92	migration z between -2 and 2; enough cells	1.12	5677
TTLL12	-3.75 (active)	migration z below -2; enough cells	-0.11	4240
DUSP12	-2.31 (active)	migration z below -2; enough cells	0.36	5244
DEFB115	-0.09	migration z between -2 and 2; enough cells	0.86	4980
MMD	0.24	migration z between -2 and 2; enough cells	0.95	5774
EZR	0.19	migration z between -2 and 2; enough cells	0.93	5600
CIZ1	-0.99	migration z between -2 and 2; enough cells	0.62	3794
NUBP1	-0.1	migration z between -2 and 2; enough cells	0.78	6304
SLA	-0.19	migration z between -2 and 2; enough cells	0.84	6296
PRICKLE4	0.52	migration z between -2 and 2; enough cells	0.9	5966
PRG3	2.65 (active)	migration z above 2; enough cells	1.57	5698
FADD	0.55	migration z between -2 and 2; enough cells	0.91	6020
TERT	0.72	migration z between -2 and 2; enough cells	0.94	6356
CCDC162P	0.62	migration z between -2 and 2; enough cells	1.04	6168
HBM	-0.38	migration z between -2 and 2; enough cells	0.79	5164
CLEC4M	1.12	migration z between -2 and 2; enough cells	1.18	5668
NOL4	0.94	migration z between -2 and 2; enough cells	1.13	6146
PAK4	-1.12	migration z between -2 and 2; enough cells	0.59	3670
SUMF1	0.33	migration z between -2 and 2; enough cells	0.98	5520
